Construct, isoform or probe ends are uncertain for at least one entry.
Biological target: Wss1-RKR (self-cleavage deficient) (Saccharomyces cerevisiae) (UniProt P38838)
Assay: EMSA
Conditions: 5 uM ZnSO4

The chains behind the UniProt entries cited, without tags or fusion partners. Where a name states a change or a piece, a line headed by the entry shows the natural chain unless it says otherwise.
UniProt P38838: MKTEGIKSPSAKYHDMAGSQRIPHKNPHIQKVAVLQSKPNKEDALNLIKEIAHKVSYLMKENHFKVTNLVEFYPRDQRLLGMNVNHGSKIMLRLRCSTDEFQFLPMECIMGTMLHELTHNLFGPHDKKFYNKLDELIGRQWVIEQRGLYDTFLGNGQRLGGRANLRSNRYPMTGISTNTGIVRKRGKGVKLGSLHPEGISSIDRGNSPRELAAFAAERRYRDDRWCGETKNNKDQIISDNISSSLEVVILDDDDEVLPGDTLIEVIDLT

“GCGCGCCCATTGATACTAAATTCAAGGATGACTTATTTC [6-FAM-39mer ssODN]”: binds.
